Source: the supplement of paper PMC10849652
This is one part of the list.

Amino acid sequences for entries named in this document (tags omitted). A change or cut given only in a name is not applied to a line headed by its entry.
UniProt Q9UL54: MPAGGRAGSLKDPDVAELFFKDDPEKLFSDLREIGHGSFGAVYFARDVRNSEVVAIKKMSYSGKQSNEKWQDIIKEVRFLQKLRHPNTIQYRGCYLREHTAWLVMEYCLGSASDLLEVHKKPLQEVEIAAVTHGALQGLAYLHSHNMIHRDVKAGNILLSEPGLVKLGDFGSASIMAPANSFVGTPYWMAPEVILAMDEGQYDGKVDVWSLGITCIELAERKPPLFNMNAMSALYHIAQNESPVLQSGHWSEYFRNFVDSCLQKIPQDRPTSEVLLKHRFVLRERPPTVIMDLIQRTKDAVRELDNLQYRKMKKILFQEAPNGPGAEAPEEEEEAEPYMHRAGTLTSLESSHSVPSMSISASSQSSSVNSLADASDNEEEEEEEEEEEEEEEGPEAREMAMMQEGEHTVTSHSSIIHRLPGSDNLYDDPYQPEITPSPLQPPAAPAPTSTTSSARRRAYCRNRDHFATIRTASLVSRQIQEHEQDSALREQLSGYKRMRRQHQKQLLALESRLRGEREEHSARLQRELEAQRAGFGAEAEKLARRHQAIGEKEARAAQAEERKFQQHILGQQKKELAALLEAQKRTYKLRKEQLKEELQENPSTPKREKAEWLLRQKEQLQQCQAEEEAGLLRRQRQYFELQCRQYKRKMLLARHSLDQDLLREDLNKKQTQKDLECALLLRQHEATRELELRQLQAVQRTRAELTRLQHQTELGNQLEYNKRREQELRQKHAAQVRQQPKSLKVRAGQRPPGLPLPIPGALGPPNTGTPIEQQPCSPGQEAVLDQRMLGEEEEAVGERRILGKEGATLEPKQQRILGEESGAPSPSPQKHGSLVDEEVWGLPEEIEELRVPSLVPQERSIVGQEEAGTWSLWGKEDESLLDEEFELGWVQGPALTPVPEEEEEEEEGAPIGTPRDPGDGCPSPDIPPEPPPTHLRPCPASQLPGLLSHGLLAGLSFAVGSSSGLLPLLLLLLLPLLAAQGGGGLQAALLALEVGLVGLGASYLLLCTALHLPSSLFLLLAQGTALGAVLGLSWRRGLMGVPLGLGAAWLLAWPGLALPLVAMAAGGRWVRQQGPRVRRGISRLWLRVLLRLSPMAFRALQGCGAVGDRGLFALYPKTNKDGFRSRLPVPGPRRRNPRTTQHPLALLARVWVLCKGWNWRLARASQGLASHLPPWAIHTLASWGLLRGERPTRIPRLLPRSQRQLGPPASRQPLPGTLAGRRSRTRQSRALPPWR
UniProt Q15560: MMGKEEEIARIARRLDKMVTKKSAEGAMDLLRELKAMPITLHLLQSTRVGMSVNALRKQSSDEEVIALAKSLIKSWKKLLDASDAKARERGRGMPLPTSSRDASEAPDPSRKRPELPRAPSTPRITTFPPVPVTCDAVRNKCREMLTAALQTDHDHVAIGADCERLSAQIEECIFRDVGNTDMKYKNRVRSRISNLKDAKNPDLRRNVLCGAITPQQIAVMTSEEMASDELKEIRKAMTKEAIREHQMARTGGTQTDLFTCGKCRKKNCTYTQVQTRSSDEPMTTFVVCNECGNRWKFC
UniProt P21731: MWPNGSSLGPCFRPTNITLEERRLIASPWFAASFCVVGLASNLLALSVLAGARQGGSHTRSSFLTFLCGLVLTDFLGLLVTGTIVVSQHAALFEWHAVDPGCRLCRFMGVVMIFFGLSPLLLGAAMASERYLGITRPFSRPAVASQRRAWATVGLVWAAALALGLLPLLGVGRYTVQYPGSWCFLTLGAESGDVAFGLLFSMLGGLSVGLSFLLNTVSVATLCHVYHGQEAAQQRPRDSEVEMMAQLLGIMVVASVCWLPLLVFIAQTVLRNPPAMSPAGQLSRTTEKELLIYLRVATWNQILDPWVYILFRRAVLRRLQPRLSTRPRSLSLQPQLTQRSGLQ
UniProt O95455: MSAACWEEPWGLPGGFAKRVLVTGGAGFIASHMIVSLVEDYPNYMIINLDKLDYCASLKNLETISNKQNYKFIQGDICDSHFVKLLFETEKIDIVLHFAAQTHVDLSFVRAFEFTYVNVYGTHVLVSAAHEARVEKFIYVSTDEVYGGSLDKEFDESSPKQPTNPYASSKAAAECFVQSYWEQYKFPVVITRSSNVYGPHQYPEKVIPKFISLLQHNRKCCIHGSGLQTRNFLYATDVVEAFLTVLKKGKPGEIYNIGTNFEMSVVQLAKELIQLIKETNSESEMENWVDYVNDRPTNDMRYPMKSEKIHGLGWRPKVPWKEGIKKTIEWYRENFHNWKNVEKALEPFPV
UniProt Q9H6P5: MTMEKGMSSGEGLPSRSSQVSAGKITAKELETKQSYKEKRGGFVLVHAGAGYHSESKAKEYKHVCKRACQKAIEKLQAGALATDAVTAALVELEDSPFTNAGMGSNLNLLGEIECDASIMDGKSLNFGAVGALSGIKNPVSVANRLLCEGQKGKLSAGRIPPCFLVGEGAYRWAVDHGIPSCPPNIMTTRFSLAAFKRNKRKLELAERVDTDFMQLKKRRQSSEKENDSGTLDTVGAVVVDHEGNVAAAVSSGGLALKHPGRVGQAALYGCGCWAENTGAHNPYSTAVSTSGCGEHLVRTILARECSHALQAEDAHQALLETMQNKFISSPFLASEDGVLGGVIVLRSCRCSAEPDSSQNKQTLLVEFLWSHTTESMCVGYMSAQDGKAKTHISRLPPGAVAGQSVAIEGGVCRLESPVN
UniProt P15923: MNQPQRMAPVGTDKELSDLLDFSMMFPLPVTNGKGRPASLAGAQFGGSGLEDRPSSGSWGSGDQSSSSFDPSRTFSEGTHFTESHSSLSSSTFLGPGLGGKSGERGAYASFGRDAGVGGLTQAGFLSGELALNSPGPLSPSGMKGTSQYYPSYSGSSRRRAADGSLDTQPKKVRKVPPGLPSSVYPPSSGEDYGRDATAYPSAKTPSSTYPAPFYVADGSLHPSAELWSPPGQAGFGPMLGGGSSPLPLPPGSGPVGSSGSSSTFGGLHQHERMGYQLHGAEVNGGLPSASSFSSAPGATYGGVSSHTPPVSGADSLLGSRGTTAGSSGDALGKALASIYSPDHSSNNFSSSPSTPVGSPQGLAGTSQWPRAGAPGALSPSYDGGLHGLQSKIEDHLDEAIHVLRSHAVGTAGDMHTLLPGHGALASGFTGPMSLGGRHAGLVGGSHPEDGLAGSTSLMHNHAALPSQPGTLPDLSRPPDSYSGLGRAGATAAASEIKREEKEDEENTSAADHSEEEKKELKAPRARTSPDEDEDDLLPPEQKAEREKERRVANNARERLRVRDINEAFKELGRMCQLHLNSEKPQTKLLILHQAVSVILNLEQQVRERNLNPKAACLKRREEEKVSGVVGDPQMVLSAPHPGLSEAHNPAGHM
UniProt P0C1Z6, whole entry, looked up: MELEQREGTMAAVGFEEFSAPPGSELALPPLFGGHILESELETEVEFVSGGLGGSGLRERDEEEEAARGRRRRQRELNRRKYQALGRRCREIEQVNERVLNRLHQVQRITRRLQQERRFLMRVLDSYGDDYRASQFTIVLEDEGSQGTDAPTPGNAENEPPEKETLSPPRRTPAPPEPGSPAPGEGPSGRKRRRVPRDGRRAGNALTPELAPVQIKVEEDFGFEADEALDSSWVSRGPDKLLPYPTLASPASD
UniProt Q7Z6L1: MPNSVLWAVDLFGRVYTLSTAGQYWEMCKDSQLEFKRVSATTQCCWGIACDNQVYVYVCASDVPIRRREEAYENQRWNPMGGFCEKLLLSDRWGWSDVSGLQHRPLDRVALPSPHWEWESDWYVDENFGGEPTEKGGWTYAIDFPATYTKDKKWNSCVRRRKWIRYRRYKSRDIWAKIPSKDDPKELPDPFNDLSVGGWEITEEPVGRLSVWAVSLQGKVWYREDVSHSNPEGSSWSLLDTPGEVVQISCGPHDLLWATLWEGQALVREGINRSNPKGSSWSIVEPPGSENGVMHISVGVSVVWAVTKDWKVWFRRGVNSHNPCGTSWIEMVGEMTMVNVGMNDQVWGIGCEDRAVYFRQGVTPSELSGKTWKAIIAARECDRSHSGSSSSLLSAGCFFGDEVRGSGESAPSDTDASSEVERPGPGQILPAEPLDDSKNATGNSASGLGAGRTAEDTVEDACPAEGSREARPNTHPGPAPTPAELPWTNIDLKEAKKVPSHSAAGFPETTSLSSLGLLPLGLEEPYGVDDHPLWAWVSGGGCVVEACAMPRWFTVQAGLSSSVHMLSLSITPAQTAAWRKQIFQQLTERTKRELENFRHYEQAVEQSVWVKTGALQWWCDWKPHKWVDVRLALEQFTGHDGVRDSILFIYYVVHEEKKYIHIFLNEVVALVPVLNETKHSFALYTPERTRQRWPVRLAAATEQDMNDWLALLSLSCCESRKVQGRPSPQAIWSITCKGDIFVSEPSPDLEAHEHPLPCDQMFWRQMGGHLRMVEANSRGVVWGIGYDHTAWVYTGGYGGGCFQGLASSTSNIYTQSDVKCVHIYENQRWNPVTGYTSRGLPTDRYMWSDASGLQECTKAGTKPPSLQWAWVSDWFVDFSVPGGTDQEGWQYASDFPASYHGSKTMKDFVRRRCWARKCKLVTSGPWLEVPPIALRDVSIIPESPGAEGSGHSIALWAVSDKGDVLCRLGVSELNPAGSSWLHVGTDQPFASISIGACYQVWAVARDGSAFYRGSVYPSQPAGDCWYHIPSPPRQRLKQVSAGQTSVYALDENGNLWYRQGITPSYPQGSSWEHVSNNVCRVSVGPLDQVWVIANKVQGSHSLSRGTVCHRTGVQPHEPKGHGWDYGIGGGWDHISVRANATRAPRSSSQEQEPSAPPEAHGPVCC
UniProt P20226, whole entry, looked up: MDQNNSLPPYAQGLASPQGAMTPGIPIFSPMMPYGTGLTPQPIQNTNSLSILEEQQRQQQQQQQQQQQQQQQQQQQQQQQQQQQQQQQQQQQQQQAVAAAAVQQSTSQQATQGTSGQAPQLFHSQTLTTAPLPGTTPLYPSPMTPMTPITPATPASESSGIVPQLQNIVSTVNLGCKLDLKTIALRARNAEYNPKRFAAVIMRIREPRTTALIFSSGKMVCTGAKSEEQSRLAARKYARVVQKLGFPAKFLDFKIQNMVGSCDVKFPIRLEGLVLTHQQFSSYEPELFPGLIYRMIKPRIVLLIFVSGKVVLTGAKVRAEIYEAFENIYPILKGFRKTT
UniProt Q9NVR7: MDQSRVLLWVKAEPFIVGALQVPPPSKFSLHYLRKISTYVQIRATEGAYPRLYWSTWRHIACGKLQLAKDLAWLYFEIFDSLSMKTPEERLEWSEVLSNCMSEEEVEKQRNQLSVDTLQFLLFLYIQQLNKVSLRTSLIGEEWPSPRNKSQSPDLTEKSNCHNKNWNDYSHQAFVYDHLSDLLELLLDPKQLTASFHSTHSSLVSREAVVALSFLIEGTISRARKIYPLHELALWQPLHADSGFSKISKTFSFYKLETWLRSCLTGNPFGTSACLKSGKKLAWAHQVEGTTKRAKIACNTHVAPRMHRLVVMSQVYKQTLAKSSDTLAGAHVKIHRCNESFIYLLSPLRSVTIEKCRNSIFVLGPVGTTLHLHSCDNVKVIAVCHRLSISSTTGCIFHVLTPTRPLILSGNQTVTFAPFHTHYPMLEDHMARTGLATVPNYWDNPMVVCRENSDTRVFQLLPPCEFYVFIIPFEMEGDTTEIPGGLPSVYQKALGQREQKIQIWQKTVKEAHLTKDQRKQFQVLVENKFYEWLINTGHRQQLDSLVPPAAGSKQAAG
UniProt Q8IYN2: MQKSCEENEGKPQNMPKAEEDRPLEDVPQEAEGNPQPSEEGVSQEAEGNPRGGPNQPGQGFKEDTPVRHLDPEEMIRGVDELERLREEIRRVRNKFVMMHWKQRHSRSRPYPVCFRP
UniProt Q96EI5: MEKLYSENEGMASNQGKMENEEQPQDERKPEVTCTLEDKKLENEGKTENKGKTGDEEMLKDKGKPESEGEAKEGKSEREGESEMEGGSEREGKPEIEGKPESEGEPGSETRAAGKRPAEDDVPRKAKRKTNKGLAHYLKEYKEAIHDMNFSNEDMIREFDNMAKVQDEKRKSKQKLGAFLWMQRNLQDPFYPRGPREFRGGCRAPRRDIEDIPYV
UniProt P19484: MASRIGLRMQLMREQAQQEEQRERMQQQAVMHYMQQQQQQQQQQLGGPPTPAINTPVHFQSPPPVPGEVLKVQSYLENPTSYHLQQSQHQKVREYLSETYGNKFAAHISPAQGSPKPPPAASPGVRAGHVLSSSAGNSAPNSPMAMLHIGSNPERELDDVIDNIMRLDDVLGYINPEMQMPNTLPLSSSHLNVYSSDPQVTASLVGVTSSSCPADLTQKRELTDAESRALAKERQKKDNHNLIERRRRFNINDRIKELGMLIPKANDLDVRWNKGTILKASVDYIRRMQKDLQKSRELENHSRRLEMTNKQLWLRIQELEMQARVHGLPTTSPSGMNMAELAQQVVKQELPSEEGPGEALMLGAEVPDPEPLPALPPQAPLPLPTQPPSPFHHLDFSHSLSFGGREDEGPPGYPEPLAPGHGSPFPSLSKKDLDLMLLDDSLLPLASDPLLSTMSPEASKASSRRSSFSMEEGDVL
UniProt Q15170: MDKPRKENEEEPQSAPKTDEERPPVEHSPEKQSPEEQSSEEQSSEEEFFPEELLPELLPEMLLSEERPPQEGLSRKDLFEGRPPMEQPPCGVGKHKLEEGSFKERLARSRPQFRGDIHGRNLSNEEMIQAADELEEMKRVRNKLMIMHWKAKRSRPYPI

Legend:
Test in all cases: log2 fold change, soluble protein after heating vs DMSO (PISA); higher = thermal stabilisation; K562 lysate, 10 uM; active = over 0.2 and 3.5 SD of the protein, either way, in both replicates (recomputed)
erlotinib = compound: C#Cc1cccc(Nc2ncnc3cc(OCCOC)c(OCCOC)cc23)c1 [erlotinib]
How it was run: (§1)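 The values are log-two fold changes in thermal stability compared with solvent controls and come from duplicates. They were obtained by TMTpro 16plex LC-MS/MS, with channel sums equalised, on the supernatant after 21,000xg for 90 min. That supernatant came from crude K562 extract at 1 mg/mL protein treated with 10 μM compound for 30 min, heated for 3 min across 48°C-58°C, pooled and brought to 0.5% NP-40 at 4°C.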

[1] = compound: C1=CC(=CC=C1C2=NC3=C(N2)C=C(C=C3)C(=O)N)OC4=CC=C(C=C4)Cl
How it was run: as §1

[2] = compound: C1=CC2=NC=CN=C2C=C1/C=C/3\C(=O)NC(=O)S3
How it was run: as §1

[3] = compound: C1=CC=C(C=C1)C2=NC(=C(N2)C3=CC=NC=C3)C4=CC(=C(C=C4)Cl)O
How it was run: as §1

[4] = compound: C1CCN(C1)C(=O)NC2=CC=CC(=C2)NC3=NC=C(C(=N3)NCCC4=CN=CN4)Br
How it was run: as §1

[5] = compound: C1CN(CCC1(CC2=CC=C(C=C2)Cl)N)C3=NC=NC4=C3C=CN4
How it was run: as §1

IRAK-1-4 Inhibitor I = compound: C1COCCN1CCN2C3=CC=CC=C3N=C2NC(=O)C4=CC(=CC=C4)[N+](=O)[O-] [IRAK-1-4 Inhibitor I]
How it was run: as §1

[6] = compound: C/C(=N\NC(=O)C1=CC(=CC=C1)S(=O)(=O)N2CCOCC2)/C3=C(C=CC(=C3)Cl)O
How it was run: as §1

[7] = compound: C1=CC2=C(C=CC(=C2)/C=C\3/C(=O)NC(=NCC4=CC=CS4)S3)N=C1
How it was run: as §1

[8] = compound: C1=CC=C2C(=C1)C3=NNC4=CC=CC(=C43)C2=O
How it was run: as §1

Measured: log2 fold change

TBCK (UniProt Q8TEA7)
inactive: erlotinib -0.001 | [1] -0.01 | [2] 0.059 | [3] 0.009 | [4] 0.066 | [5] 0.181 | IRAK-1-4 Inhibitor I 0.044

TASOR2 (UniProt Q5VWN6)
inactive: [2] -0.137 | [3] -0.004 | [4] -0.025 | [5] -0.138 | IRAK-1-4 Inhibitor I 0.126

TAOK2 (UniProt Q9UL54)
active: [8] 0.729
inactive: [6] 0.006 | [7] -0.034 | [2] 0.072 | [3] -0.031 | [4] 0.038 | [5] 0.058 | IRAK-1-4 Inhibitor I 0.072

TENM4 (UniProt Q6N022)
inactive: [2] -0.334

TCEA2 (UniProt Q15560)
inactive: [3] -0.124 | [4] 0.02 | [5] -0.071 | IRAK-1-4 Inhibitor I -0.077

TBXA2R (UniProt P21731)
inactive: erlotinib 0.23 | [1] -0.124 | [2] -0.035 | [3] 0.043 | IRAK-1-4 Inhibitor I 0.058

TGDS (UniProt O95455)
inactive: [2] 0.035

TEAD3 (UniProt Q99594)
inactive: erlotinib -0.248 | [1] -0.075 | [3] -0.03 | [4] 0.244 | [5] -0.019 | IRAK-1-4 Inhibitor I 0.093

TASP1 (UniProt Q9H6P5)
inactive: erlotinib -0.013 | [1] -0.017 | [2] -0.102 | [3] -0.022 | [4] -0.062 | [5] 0.092 | IRAK-1-4 Inhibitor I 0.055

TBCD, A0A0J9YWI5
inactive: [4] 0.177 | [5] 0.1

TCF4 (UniProt P15884)
inactive: [3] 0.005 | [4] 0.234 | [5] -0.165 | IRAK-1-4 Inhibitor I -0.152

TCF3 isoform 2 (UniProt P15923)
inactive: erlotinib 0.131 | [1] -0.049 | [3] 0.154 | IRAK-1-4 Inhibitor I -0.249

TBCA (UniProt E5RHG6)
inactive: erlotinib -0.111 | [1] -0.147 | [3] -0.04 | IRAK-1-4 Inhibitor I 0.072

TC2N (UniProt Q8N9U0)
inactive: [6] -0.009 | [7] -0.005 | [8] -0.152 | [4] -0.156 | [5] 0.075

TFPT (UniProt P0C1Z6)
inactive: erlotinib -0.078 | [1] 0.037 | [2] -0.186

TET2 (UniProt Q6N021)
inactive: erlotinib 0.22 | [1] 0.116 | [2] -0.053 | [4] -0.057 | [5] 0.057

TANC2 isoform 2 (UniProt Q9HCD6)
inactive: erlotinib -0.15 | [1] 0.115 | [3] -0.255 | IRAK-1-4 Inhibitor I -0.238

TAX1BP1 isoform 2 (UniProt Q86VP1)
inactive: erlotinib -0.018 | [1] -0.042 | [2] 0.138 | [3] -0.079 | IRAK-1-4 Inhibitor I -0.002

TCN1 (UniProt P20061)
inactive: erlotinib -0.061 | [1] 0.066 | [2] -0.036 | [3] 0.017 | [4] -0.082 | [5] 0.291 | IRAK-1-4 Inhibitor I 0

Reprinted at random: 2 entries already listed, in no set order.
TFPT (UniProt P0C1Z6)
inactive: erlotinib -0.078 | [1] 0.037 | [2] -0.186

TCN1 (UniProt P20061)
inactive: erlotinib -0.061 | [1] 0.066 | [2] -0.036 | [3] 0.017 | [4] -0.082 | [5] 0.291 | IRAK-1-4 Inhibitor I 0

Later entries:

TFPI isoform 2 (UniProt P10646)
inactive: [6] 0.01 | [7] 0.113 | [8] -0.171

TCOF1 isoform 6 (UniProt Q13428)
inactive: erlotinib -0.106 | [1] 0.033 | [3] -0.053 | IRAK-1-4 Inhibitor I 0.114

TECPR1 isoform 4 (UniProt Q7Z6L1)
inactive: erlotinib 0.007 | [1] 0.053 | [2] 0.373

TBP (UniProt P20226)
inactive: erlotinib 0.01 | [1] 0.008 | [2] 0.043 | [3] 0.001 | [4] -0.089 | [5] 0.145 | IRAK-1-4 Inhibitor I 0.011

TDG (UniProt Q13569)
inactive: [6] 0.015 | [7] -0.033 | [2] -0.08 | [3] 0.005 | [8] 0.004 | [4] 0.031 | [5] -0.012 | IRAK-1-4 Inhibitor I 0.067

TCF20 (UniProt Q9UGU0)
inactive: erlotinib -0.04 | [1] -0.001 | [2] 0.039

TBX1 isoform 3 (UniProt O43435)
inactive: [6] -0.094 | [7] 0.135 | [2] 0.097 | [8] -0.007 | [4] 0.027 | [5] 0.118

TARDBP (UniProt K7EN94)
inactive: [6] 0.293 | [7] -0.12 | [8] -0.12 | [4] 0.001 | [5] -0.19

TBCCD1 (UniProt Q9NVR7)
inactive: erlotinib 0.042 | [1] 0.148 | [3] -0.167 | IRAK-1-4 Inhibitor I -0.111

TENT4B isoform 5 (UniProt Q8NDF8)
inactive: erlotinib -0.114 | [1] -0.327 | [2] -0.121 | [3] -0.001 | IRAK-1-4 Inhibitor I -0.047

TCF3 (UniProt X6REB3)
inactive: [6] -0.006 | [7] -0.208 | [8] -0.192

TCEAL8 (UniProt Q8IYN2)
inactive: [6] 0.015 | [7] -0.044 | [8] -0.013 | [4] -0.06 | [5] 0.023

TEC (UniProt P42680)
inactive: [6] 0.092 | [7] -0.051 | [8] -0.048 | [4] -0.024 | [5] -0.038

TCEAL4 isoform 2 (UniProt Q96EI5)
inactive: [6] -0.082 | [7] -0.094 | [2] -0.15 | [8] -0.081 | [4] 0.041 | [5] -0.022

TFEB (UniProt P19484)
inactive: [6] -0.174 | [7] -0.042 | [8] 0.106

TCEAL1 isoform 2 (UniProt Q15170)
inactive: [6] 0.121 | [7] -0.051 | [2] -0.115 | [8] -0.011

TBKBP1 (UniProt A7MCY6)
inactive: [2] -0.033

TERF1 (UniProt P54274)
inactive: [6] -0.031 | [7] 0.029 | [8] -0.037 | [4] -0.058 | [5] -0.081
